Results reported in the supplement of paper PMC10849652.
The other results are listed elsewhere or left out.

By UniProt entry, the sequences of proteins in these tests, tags left out. Where a name states a change or a piece, a line headed by the entry shows the natural chain unless it says otherwise.
UniProt Q13409, whole entry, looked up: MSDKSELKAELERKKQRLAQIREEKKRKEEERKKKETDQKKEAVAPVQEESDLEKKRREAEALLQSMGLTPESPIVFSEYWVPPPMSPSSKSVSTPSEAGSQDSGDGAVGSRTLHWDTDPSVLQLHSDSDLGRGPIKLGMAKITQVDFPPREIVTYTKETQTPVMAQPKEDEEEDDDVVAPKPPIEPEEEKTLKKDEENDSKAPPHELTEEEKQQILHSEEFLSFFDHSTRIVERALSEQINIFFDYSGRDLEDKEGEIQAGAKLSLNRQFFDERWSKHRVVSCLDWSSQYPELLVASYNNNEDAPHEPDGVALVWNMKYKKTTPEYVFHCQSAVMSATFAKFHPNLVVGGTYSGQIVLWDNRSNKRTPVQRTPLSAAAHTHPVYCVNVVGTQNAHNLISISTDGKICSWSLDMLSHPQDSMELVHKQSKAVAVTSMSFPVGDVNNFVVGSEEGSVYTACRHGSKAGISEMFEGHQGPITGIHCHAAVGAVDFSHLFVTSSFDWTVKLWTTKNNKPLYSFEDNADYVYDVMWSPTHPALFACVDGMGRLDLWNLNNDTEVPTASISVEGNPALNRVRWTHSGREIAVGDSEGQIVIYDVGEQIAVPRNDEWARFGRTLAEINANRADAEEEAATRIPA
UniProt O95905: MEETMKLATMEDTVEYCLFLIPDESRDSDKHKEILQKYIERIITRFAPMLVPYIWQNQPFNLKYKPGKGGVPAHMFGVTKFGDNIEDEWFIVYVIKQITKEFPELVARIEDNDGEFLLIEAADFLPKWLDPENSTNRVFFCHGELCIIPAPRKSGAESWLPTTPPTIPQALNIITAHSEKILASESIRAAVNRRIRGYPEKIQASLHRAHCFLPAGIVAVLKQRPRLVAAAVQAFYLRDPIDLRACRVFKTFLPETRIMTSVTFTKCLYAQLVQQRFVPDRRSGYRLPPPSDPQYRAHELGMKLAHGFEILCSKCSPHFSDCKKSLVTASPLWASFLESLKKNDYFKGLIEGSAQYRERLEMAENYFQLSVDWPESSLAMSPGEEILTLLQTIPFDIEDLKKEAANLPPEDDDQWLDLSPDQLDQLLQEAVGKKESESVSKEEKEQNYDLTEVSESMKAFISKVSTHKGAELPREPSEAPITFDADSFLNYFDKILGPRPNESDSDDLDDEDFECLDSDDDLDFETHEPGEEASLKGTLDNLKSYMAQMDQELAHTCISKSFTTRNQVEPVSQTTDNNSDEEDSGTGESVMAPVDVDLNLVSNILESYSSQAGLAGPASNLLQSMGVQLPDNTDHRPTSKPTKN
UniProt Q6UX65: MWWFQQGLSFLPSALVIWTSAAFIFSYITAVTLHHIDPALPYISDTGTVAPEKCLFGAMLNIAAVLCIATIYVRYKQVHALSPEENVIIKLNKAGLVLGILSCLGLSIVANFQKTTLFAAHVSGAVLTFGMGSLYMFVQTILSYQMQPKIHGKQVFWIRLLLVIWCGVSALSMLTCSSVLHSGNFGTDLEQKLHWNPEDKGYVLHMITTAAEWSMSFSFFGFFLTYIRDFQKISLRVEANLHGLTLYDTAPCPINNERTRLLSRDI
UniProt Q66K89: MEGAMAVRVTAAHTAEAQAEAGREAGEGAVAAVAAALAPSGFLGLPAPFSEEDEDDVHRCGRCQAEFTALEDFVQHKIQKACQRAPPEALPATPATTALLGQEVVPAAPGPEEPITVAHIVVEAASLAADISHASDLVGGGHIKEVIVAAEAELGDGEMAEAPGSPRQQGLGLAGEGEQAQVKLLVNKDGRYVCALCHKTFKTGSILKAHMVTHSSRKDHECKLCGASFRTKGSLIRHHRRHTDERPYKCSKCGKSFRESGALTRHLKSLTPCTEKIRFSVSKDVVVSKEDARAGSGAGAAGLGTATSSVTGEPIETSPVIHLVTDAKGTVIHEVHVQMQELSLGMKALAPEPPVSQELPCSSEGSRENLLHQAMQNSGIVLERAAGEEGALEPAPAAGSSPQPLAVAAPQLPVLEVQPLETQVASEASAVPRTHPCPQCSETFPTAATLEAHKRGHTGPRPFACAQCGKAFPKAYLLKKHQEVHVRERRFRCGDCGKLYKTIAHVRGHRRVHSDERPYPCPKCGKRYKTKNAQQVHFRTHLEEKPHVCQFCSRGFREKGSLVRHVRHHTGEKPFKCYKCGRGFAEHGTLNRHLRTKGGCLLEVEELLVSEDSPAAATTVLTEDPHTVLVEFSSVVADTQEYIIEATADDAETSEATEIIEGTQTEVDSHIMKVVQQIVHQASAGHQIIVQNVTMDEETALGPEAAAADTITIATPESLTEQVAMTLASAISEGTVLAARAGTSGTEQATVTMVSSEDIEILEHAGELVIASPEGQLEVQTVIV
UniProt Q5QJE6: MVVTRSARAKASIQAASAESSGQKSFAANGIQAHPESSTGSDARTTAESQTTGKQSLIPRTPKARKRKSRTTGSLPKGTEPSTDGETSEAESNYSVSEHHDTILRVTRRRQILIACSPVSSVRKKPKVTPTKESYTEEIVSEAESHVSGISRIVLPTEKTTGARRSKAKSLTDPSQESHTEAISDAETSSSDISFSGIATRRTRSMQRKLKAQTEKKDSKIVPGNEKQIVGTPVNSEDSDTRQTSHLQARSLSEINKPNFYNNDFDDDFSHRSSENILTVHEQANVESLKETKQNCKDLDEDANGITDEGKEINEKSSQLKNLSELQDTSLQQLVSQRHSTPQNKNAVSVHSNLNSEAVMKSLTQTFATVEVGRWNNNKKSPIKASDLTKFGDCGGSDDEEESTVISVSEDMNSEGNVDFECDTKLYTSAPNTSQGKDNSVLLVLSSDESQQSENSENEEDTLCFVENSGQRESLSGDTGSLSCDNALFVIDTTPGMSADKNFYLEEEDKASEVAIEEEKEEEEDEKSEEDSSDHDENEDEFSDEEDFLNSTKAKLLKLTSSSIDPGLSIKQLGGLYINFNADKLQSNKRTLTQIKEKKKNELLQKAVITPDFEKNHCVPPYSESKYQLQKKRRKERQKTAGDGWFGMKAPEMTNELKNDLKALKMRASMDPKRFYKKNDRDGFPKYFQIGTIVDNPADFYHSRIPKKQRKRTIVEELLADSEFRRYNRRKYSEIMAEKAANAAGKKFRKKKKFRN
UniProt Q9H410: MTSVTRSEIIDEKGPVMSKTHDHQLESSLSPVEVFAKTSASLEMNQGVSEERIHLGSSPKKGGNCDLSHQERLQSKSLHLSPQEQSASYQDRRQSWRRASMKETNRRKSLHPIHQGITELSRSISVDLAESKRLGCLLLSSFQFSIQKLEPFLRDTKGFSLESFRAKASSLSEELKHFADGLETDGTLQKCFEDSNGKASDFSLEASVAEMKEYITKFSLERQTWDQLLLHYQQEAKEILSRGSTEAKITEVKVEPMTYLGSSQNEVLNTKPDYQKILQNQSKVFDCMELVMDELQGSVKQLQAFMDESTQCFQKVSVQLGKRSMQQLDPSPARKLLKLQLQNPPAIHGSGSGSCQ
UniProt Q96FN9: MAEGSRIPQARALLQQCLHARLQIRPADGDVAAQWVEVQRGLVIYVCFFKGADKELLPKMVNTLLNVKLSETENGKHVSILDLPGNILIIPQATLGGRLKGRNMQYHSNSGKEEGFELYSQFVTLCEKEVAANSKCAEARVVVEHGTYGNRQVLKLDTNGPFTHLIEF
UniProt Q9Y2G8: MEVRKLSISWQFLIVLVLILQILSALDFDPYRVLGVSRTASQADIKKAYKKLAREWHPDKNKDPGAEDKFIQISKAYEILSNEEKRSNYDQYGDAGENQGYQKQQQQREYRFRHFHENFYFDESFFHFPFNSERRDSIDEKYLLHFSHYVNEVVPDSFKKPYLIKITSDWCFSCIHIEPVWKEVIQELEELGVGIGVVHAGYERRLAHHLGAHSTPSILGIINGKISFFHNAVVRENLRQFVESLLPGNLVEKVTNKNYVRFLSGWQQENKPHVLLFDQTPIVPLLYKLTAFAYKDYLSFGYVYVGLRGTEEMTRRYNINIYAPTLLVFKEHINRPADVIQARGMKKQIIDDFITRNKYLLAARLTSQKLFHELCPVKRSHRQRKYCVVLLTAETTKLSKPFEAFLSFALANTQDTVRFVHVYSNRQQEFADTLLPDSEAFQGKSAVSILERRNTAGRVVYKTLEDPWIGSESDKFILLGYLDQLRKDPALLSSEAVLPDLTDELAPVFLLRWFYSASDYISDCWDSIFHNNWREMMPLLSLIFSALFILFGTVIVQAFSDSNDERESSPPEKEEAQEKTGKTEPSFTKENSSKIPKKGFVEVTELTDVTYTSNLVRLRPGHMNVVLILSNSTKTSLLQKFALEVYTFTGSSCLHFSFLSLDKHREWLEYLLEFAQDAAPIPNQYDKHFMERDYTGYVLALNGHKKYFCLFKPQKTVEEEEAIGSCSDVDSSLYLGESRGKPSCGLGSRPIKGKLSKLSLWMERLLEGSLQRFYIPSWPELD
UniProt Q8NBA8: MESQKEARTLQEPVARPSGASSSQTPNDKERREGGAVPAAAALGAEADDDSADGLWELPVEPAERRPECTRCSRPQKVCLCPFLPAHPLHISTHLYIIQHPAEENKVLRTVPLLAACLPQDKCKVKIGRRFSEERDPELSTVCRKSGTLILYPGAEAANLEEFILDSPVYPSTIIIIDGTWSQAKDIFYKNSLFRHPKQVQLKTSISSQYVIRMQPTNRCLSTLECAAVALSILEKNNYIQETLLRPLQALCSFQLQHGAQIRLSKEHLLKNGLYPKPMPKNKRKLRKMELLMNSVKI
UniProt Q96FX2: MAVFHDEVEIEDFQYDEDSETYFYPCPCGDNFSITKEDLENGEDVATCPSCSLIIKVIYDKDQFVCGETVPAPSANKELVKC
UniProt Q99704: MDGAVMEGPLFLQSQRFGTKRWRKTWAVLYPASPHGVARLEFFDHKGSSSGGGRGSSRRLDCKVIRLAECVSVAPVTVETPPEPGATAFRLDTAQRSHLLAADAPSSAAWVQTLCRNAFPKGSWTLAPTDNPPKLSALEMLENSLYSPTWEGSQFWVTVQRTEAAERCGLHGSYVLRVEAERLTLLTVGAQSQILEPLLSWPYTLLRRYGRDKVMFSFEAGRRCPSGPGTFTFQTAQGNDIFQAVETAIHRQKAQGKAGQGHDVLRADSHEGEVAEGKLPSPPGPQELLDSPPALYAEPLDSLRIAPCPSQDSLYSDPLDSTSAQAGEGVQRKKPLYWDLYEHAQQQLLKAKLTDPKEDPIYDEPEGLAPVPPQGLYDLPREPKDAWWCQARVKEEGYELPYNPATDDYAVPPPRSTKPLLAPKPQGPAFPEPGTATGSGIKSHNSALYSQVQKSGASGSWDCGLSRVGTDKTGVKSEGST
UniProt Q6P3W2: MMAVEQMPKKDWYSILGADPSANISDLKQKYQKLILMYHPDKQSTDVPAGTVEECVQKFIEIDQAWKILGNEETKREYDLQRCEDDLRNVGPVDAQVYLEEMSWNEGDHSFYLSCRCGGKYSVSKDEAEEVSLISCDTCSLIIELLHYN
UniProt Q7RTS9: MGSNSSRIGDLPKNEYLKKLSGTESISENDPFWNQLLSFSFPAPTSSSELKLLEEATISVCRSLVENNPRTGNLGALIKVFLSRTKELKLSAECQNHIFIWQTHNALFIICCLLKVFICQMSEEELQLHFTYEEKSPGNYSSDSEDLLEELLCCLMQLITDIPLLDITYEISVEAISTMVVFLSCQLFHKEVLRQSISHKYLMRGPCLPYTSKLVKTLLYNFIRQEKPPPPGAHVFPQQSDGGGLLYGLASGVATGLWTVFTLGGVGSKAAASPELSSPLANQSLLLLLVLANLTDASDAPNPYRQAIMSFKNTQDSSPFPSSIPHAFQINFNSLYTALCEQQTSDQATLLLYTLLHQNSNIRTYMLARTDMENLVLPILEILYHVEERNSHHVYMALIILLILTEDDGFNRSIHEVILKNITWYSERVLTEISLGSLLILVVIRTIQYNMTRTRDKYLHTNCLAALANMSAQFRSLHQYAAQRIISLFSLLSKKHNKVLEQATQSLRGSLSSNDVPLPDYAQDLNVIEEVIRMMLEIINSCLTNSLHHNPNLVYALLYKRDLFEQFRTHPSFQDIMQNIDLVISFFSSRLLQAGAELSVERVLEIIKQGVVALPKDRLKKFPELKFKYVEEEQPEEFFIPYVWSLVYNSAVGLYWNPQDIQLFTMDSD
UniProt O00716: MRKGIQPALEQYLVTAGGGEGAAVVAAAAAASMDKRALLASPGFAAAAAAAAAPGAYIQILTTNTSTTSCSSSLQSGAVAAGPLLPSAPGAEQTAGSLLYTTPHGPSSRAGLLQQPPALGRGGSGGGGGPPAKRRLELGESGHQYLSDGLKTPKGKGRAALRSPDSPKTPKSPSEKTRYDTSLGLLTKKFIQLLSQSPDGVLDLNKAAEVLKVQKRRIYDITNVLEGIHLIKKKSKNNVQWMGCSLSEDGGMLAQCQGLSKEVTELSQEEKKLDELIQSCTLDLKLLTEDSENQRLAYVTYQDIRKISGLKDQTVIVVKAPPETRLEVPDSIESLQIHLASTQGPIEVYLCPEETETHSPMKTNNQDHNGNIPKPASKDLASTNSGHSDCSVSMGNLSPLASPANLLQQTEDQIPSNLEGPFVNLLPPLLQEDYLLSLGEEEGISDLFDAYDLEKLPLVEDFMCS

Compound: CC1=CC=C(C=C1)SC2=C3C=C(SC3=CN=C2)C(=O)N
Assay: log2 fold change, soluble protein after heating vs DMSO (PISA); higher = thermal stabilisation; K562 cells, 10 uM, 30 min; active = over 0.2 and 3.5 SD of the protein, either way, in both replicates (recomputed)
Outline: (§1)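 K562 cells at 2×10^6 cells/mL were given 10 μM compound for 30 min. Aliquots then went through 3 min of heating across 48°C-58°C, were pooled, and were extracted in PBS with 0.5% NP-40 at 4°C, and the supernatant after 21,000xg for 90 min was quantified by TMTpro 16plex LC-MS/MS with channel sums equalised. Thermal stability relative to control samples, from duplicates, is given as log2 fold change.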

**Q.** DYNC1I2 isoform 2 (UniProt Q13409) was tested. Which log2 fold change did it give?
**A.** The log2 fold change was inactive: -0.179.

**Q.** How did the log2 fold change turn out when ECD isoform 3 (UniProt O95905) was run?
**A.** Its log2 fold change is inactive: 0.021.

**Q.** Which log2 fold change does the source give for DRAM2 (UniProt Q6UX65) here?
**A.** The log2 fold change was inactive: -0.007.

**Q.** With E4F1 (UniProt Q66K89) as the target, how does the log2 fold change read?
**A.** Its log2 fold change is inactive: -0.213.

**Q.** With EAPP (UniProt Q56P03) as the target, how does the log2 fold change read?
**A.** The log2 fold change was inactive: 0.096.

**Q.** DNTTIP2 (UniProt Q5QJE6) was tested. Which log2 fold change did it give?
**A.** The log2 fold change was inactive: -0.087.

**Q.** DOLPP1 (UniProt Q86YN1) was tested. Which log2 fold change did it give?
**A.** The log2 fold change was inactive: -0.094.

**Q.** For DNPEP (UniProt B9ZVU2), which log2 fold change is on record?
**A.** Its log2 fold change is inactive: -0.265.

**Q.** How did the log2 fold change turn out when DSN1 (UniProt Q9H410) was run?
**A.** Its log2 fold change is inactive: -0.003.

**Q.** DNAJC25 (UniProt Q9H1X3) was tested. Which log2 fold change did it give?
**A.** Its log2 fold change is inactive: -0.088.

**Q.** With DTD2 (UniProt Q96FN9) as the target, how does the log2 fold change read?
**A.** Its log2 fold change is inactive: -0.023.

**Q.** For DNAJC16 (UniProt Q9Y2G8), which log2 fold change is on record?
**A.** Its log2 fold change is inactive: -0.049.

**Q.** Which log2 fold change does the source give for DYRK1A isoform 2 (UniProt Q13627) here?
**A.** The log2 fold change was inactive: 0.003.

**Q.** With DYNLT1 (UniProt P63172) as the target, how does the log2 fold change read?
**A.** The log2 fold change was inactive: 0.023.

**Q.** DNM1L isoform 2 (UniProt O00429) was tested. Which log2 fold change did it give?
**A.** Its log2 fold change is inactive: 0.09.

**Q.** DTWD2 (UniProt Q8NBA8) was tested. Which log2 fold change did it give?
**A.** Its log2 fold change is inactive: 0.197.

**Q.** For DPH3 (UniProt Q96FX2), which log2 fold change is on record?
**A.** Its log2 fold change is inactive: 0.219.

**Q.** With DOK1 (UniProt Q99704) as the target, how does the log2 fold change read?
**A.** Its log2 fold change is inactive: 0.132.

**Q.** How did the log2 fold change turn out when DNAJC24 (UniProt Q6P3W2) was run?
**A.** Its log2 fold change is inactive: 0.104.

**Q.** Which log2 fold change does the source give for DPYSL2 (UniProt Q16555) here?
**A.** The log2 fold change was inactive: 0.03.

**Q.** For DYM (UniProt Q7RTS9), which log2 fold change is on record?
**A.** Its log2 fold change is inactive: 0.249.

**Q.** For DNPEP (UniProt C9JBE1), which log2 fold change is on record?
**A.** The log2 fold change was inactive: -0.004.

Compound: CC1=NC(=CC=C1)C2=C(N=C(N2)C(C)(C)C)C3=CC4=NC=CN=C4C=C3
Assay: as above
Outline: as §1

**Q.** With DOP1B (UniProt Q9Y3R5) as the target, how does the log2 fold change read?
**A.** Its log2 fold change is inactive: 0.118.

**Q.** With E2F3 (UniProt O00716) as the target, how does the log2 fold change read?
**A.** The log2 fold change was inactive: 0.06.

**Q.** Which log2 fold change does the source give for DYNC1I2 isoform 2 (UniProt Q13409) here?
**A.** Its log2 fold change is inactive: 0.061.

**Q.** With ECD isoform 3 (UniProt O95905) as the target, how does the log2 fold change read?
**A.** The log2 fold change was inactive: -0.029.

**Q.** Which log2 fold change does the source give for DRAM2 (UniProt Q6UX65) here?
**A.** Its log2 fold change is inactive: 0.154.

**Q.** For E4F1 (UniProt Q66K89), which log2 fold change is on record?
**A.** Its log2 fold change is inactive: -0.047.

**Q.** With EAPP (UniProt Q56P03) as the target, how does the log2 fold change read?
**A.** The log2 fold change was inactive: 0.083.

**Q.** With DNTTIP2 (UniProt Q5QJE6) as the target, how does the log2 fold change read?
**A.** Its log2 fold change is inactive: -0.061.

**Q.** How did the log2 fold change turn out when DOCK8 (UniProt Q8NF50) was run?
**A.** The log2 fold change was inactive: -0.086.

**Q.** Which log2 fold change does the source give for DOLPP1 (UniProt Q86YN1) here?
**A.** The log2 fold change was inactive: 0.026.

**Q.** Which log2 fold change does the source give for DNPEP (UniProt B9ZVU2) here?
**A.** The log2 fold change was inactive: -0.059.

**Q.** Which log2 fold change does the source give for DSN1 (UniProt Q9H410) here?
**A.** The log2 fold change was inactive: 0.021.

**Q.** With DNAJC25 (UniProt Q9H1X3) as the target, how does the log2 fold change read?
**A.** Its log2 fold change is inactive: 0.143.

**Q.** Which log2 fold change does the source give for DTD2 (UniProt Q96FN9) here?
**A.** The log2 fold change was inactive: -0.005.

**Q.** DNAJC16 (UniProt Q9Y2G8) was tested. Which log2 fold change did it give?
**A.** Its log2 fold change is inactive: -0.06.

**Q.** For DNM2 isoform 4 (UniProt P50570), which log2 fold change is on record?
**A.** Its log2 fold change is inactive: 0.23.

**Q.** Which log2 fold change does the source give for DYRK1A isoform 2 (UniProt Q13627) here?
**A.** The log2 fold change was inactive: -0.005.

**Q.** With DYNLT1 (UniProt P63172) as the target, how does the log2 fold change read?
**A.** The log2 fold change was inactive: 0.085.

**Q.** How did the log2 fold change turn out when DNM1L isoform 2 (UniProt O00429) was run?
**A.** The log2 fold change was inactive: -0.007.

**Q.** With DTWD2 (UniProt Q8NBA8) as the target, how does the log2 fold change read?
**A.** The log2 fold change was inactive: -0.048.

**Q.** DUSP9 (UniProt Q99956) was tested. Which log2 fold change did it give?
**A.** Its log2 fold change is inactive: 0.142.

**Q.** For DOCK10 (UniProt Q96BY6), which log2 fold change is on record?
**A.** The log2 fold change was inactive: -0.011.

**Q.** With DONSON (UniProt Q9NYP3) as the target, how does the log2 fold change read?
**A.** Its log2 fold change is inactive: -0.312.

**Q.** With DPH3 (UniProt Q96FX2) as the target, how does the log2 fold change read?
**A.** Its log2 fold change is inactive: -0.025.

**Q.** With DOK1 (UniProt Q99704) as the target, how does the log2 fold change read?
**A.** The log2 fold change was inactive: -0.355.

**Q.** Which log2 fold change does the source give for DNAJC24 (UniProt Q6P3W2) here?
**A.** The log2 fold change was inactive: 0.008.

**Q.** How did the log2 fold change turn out when DPYSL2 (UniProt Q16555) was run?
**A.** Its log2 fold change is inactive: 0.033.

**Q.** Which log2 fold change does the source give for DNAJC30 (UniProt Q96LL9) here?
**A.** Its log2 fold change is inactive: -0.043.

**Q.** For ECHDC3 (UniProt Q96DC8), which log2 fold change is on record?
**A.** The log2 fold change was inactive: 0.064.

**Q.** Which log2 fold change does the source give for DNAL1 (UniProt Q4LDG9) here?
**A.** The log2 fold change was inactive: 0.069.

**Q.** Which log2 fold change does the source give for DYM (UniProt Q7RTS9) here?
**A.** Its log2 fold change is inactive: 0.045.

**Q.** For DNPEP (UniProt C9JBE1), which log2 fold change is on record?
**A.** Its log2 fold change is inactive: -0.104.

**Q.** DPY19L2 (UniProt Q6NUT2) was tested. Which log2 fold change did it give?
**A.** Its log2 fold change is inactive: 0.031.

**Q.** For DPCD (UniProt Q9BVM2), which log2 fold change is on record?
**A.** The log2 fold change was inactive: -0.044.

Compound: CCCCN(Cc1ccc(C(=O)NO)cc1)C(=O)Nc1ccccc1 [Nexturastat A]
Assay: as above
Outline: as §1

**Q.** With DOP1B (UniProt Q9Y3R5) as the target, how does the log2 fold change read?
**A.** Its log2 fold change is inactive: -0.095.

**Q.** For E2F3 (UniProt O00716), which log2 fold change is on record?
**A.** Its log2 fold change is inactive: 0.102.

**Q.** How did the log2 fold change turn out when DYNC1I2 isoform 2 (UniProt Q13409) was run?
**A.** The log2 fold change was inactive: 0.047.

**Q.** ECD isoform 3 (UniProt O95905) was tested. Which log2 fold change did it give?
**A.** The log2 fold change was inactive: 0.037.

**Q.** For DRAM2 (UniProt Q6UX65), which log2 fold change is on record?
**A.** The log2 fold change was inactive: -0.029.

**Q.** E4F1 (UniProt Q66K89) was tested. Which log2 fold change did it give?
**A.** Its log2 fold change is inactive: 0.372.

**Q.** How did the log2 fold change turn out when DNTTIP2 (UniProt Q5QJE6) was run?
**A.** Its log2 fold change is inactive: 0.151.

**Q.** How did the log2 fold change turn out when DOCK8 (UniProt Q8NF50) was run?
**A.** Its log2 fold change is inactive: 0.468.

**Q.** Which log2 fold change does the source give for DSN1 (UniProt Q9H410) here?
**A.** The log2 fold change was inactive: 0.051.

**Q.** With DTD2 (UniProt Q96FN9) as the target, how does the log2 fold change read?
**A.** The log2 fold change was inactive: 0.081.

**Q.** DNAJC16 (UniProt Q9Y2G8) was tested. Which log2 fold change did it give?
**A.** The log2 fold change was inactive: -0.001.

**Q.** For DNM2 isoform 4 (UniProt P50570), which log2 fold change is on record?
**A.** The log2 fold change was inactive: 0.089.

**Q.** Which log2 fold change does the source give for DYRK1A isoform 2 (UniProt Q13627) here?
**A.** Its log2 fold change is inactive: -0.032.

**Q.** DTWD2 (UniProt Q8NBA8) was tested. Which log2 fold change did it give?
**A.** The log2 fold change was inactive: 0.009.

**Q.** For DUSP9 (UniProt Q99956), which log2 fold change is on record?
**A.** Its log2 fold change is inactive: -0.014.

**Q.** DONSON (UniProt Q9NYP3) was tested. Which log2 fold change did it give?
**A.** Its log2 fold change is inactive: 0.316.

**Q.** Which log2 fold change does the source give for DPH3 (UniProt Q96FX2) here?
**A.** The log2 fold change was inactive: 0.158.

**Q.** For DOK1 (UniProt Q99704), which log2 fold change is on record?
**A.** The log2 fold change was inactive: -0.017.

**Q.** With DNAJC24 (UniProt Q6P3W2) as the target, how does the log2 fold change read?
**A.** Its log2 fold change is inactive: -0.208.

**Q.** With DPYSL2 (UniProt Q16555) as the target, how does the log2 fold change read?
**A.** Its log2 fold change is inactive: -0.176.

**Q.** For ECHDC3 (UniProt Q96DC8), which log2 fold change is on record?
**A.** The log2 fold change was inactive: -0.001.

**Q.** DNAL1 (UniProt Q4LDG9) was tested. Which log2 fold change did it give?
**A.** The log2 fold change was inactive: -0.135.

**Q.** Which log2 fold change does the source give for DYM (UniProt Q7RTS9) here?
**A.** The log2 fold change was inactive: 0.011.

**Q.** How did the log2 fold change turn out when DNPEP (UniProt C9JBE1) was run?
**A.** Its log2 fold change is inactive: 0.015.
